# Test system: scopolamine-induced amnesia
# Test: passive avoidance paradigm, reversal of scopolamine-induced amnesia (crossover latency)
# Assay type: in vivo, rats
# Conditions: saline one hour before and scopolamine 1 mg/Kg IP 30 minutes before acquisition trial; latency 24 hours later (no scopolamine: 583.8±16.2 sec)
# Method: Male rats weighing between 80 and 100 grams were purchased from Hilltop Lab Animals Inc. (Scottdale, Pa.) and housed in hanging wire mesh cages in groups of three with water and rat chow available ad libitum. The room in which the animals were housed was controlled for both temperature and humidity, there was a standard 12 hour, light/dark cycle. To assess memory, the Gemini Avoidance System (San Diego Instruments) was utilized in a standard passive avoidance paradigm. Briefly, the avoidance apparatus consisted of a box (53×53×32 cm) with two compartments connected by an opening with a sliding door. The room in which the rat was placed was brightly lit, while the other room was dark. Initially, the animals were allowed to explore the apparatus and were then removed. During the memory acquisition trial, animals were placed in the light compartment. […] Twenty-four hours later the rat was again placed in the light side of the apparatus and the time latency to crossing to the dark room recorded. […] The acquisition of memory for the foot shock was assessed as an increased latency period before entering the dark room on the second day. Significant differences in crossover latency were determined by statistical analysis utilizing one-way analysis of a variance with a Dunnett's test post hoc. […]
smiles,measurement,value
"CN1[C@@H]2C[C@@H](OC(=O)[C@H](CO)c3ccccc3)C[C@H]1[C@@H]1O[C@@H]12 [scopolamine, reference compound]",retention latency,21.1 ± 10.9 s

# From patent publication US5556847A, “Methods of effecting memory enhancement mediated by steroid sulfatase inhibitors” (Duquesne University of the Holy Ghost, priority 1994, dated 1996)
